SMILES strings stand for the structures.

Protein sequences, listed by entry. Tags and fused reporters are not part of them. Residues count along the entry.
UniProt Q9UM73, 19-1620: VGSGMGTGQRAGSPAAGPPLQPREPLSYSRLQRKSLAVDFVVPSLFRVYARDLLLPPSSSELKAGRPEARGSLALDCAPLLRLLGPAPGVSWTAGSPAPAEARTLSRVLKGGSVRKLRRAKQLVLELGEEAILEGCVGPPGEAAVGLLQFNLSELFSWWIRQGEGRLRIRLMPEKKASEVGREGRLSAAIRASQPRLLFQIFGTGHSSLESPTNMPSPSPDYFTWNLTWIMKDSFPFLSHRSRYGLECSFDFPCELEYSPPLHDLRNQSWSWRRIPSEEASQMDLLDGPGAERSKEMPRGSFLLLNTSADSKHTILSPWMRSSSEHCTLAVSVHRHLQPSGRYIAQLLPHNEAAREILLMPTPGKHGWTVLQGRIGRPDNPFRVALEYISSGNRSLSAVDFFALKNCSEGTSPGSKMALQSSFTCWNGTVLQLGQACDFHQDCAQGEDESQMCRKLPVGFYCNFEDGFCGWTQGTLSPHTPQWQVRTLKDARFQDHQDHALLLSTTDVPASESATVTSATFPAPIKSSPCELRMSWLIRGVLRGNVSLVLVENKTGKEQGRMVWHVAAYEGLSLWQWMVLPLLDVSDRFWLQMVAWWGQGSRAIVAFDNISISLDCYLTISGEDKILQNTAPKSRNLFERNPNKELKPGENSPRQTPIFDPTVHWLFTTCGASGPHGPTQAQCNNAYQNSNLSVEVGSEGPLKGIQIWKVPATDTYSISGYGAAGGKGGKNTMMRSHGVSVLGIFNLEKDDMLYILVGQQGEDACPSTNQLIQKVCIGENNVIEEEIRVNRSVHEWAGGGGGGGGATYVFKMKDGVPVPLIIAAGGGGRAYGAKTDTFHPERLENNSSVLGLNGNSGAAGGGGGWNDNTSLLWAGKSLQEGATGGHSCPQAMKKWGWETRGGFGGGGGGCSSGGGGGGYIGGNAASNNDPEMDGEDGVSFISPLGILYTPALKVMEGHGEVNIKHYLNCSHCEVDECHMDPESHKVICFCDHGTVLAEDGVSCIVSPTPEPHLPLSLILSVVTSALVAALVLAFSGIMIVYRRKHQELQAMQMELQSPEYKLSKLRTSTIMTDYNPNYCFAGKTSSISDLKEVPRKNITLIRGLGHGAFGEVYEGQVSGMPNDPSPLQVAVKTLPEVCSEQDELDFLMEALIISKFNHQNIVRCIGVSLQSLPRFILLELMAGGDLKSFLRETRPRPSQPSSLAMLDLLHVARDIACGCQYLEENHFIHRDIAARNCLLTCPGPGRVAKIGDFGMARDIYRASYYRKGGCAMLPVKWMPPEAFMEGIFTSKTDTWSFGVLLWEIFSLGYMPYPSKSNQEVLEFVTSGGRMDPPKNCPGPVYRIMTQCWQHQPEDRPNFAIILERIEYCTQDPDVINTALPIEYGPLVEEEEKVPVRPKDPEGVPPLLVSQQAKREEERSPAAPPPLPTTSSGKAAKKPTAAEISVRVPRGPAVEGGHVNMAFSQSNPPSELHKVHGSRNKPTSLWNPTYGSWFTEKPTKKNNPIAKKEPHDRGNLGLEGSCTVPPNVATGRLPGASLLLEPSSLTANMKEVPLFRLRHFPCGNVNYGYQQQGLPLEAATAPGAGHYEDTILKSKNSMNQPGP
UniProt P08581, 956-1390 limits assumed: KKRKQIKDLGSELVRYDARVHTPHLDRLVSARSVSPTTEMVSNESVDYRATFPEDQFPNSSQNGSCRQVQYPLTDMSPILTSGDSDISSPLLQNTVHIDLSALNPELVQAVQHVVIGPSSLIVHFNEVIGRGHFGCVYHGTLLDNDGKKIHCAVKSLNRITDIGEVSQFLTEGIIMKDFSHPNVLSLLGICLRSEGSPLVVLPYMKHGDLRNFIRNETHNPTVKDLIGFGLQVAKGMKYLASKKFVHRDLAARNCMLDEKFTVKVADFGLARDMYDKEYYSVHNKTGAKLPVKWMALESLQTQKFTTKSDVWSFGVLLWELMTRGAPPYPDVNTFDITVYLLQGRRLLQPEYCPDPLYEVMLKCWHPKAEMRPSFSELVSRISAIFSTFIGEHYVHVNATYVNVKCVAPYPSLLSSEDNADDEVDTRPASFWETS

Experiment [1] concerns the target T1, baculovirus-expressed ALK (Homo sapiens, UniProt Q9UM73).
T1 construct: host or cells: baculovirus expression system
Nature of the experiment: ALK Kinase Assay (ELISA-type, time-resolved fluorescence). In kind it is biochemical. The conditions noted are these: 1 μM ATP (Km level), 30 ng/ml ALK, 37° C., 15 minutes; read-out: ALK Activity (ALK kinase inhibition, IC50 class). On the procedure: (§1) Briefly, each 96-well plate was coated with 100 μL/well of 10 μg/mL substrate (phospholipase C-γ) in Tris-buffered saline (TBS). […] The reaction was initiated by adding enzyme (30 ng/ml ALK) and was allowed to proceed at 37° C. for 15 minutes. Detection of the phosphorylated product was performed by adding 100 μl/well of Eu-N1 labeled PT66 antibody (Perkin Elmer # AD0041).
(§2) Data analysis was performed using ActivityBase (IDBS, Guilford, UK). IC50 values were calculated by plotting percent inhibition versus log10 of the concentration of compound and fitting to the nonlinear regression sigmoidal dose-response (variable slope) equation in XLFit (IDBS, Guilford, UK).

In experiment [2] the target is T2, c-Met (cytoplasmic domain) (Homo sapiens, UniProt P08581).
T2 construct: 10 ng/mL c-Met (cytoplasmic domain, Invitrogen Corporation #PV3143); purchased Invitrogen Corporation PV3143
The experiment can be described thus: c-Met Kinase Assay (same methods as for ALK, with modifications). Format: biochemical. The conditions noted are these: 1 μM ATP (Km level), 10 ng/mL c-Met; read-out: cMet Activity (c-Met kinase inhibition, IC50 class). On the procedure: as §1, §2
Reactions were initiated with 10 ng/mL c-Met (cytoplasmic domain, Invitrogen Corporation #PV3143).

For `CCN1C(=O)C(NC(=O)C(F)(F)F)CCc2c1ccc(Nc1ncc(Cl)c(Nc3ccc(N(C)C)cc3OC)n1)c2OC` (centres unmarked) [Example 1341, N-{7-[5-Chloro-4-(4-dimethylamino-2-methoxy-phenylamino)-pyrimidin-2-ylamino]-1-ethyl-6-methoxy-2-oxo-2,3,4,5-tetrahydro-1H-benzo[b]azepin-3-yl}-2,2,2-trifluoro-acetamide], the IC50 in experiment [1] was under 100 nM; in experiment [2] it was over 10 µM.

The record behind these values is patent US8148391B2 (Cephalon, Inc., priority 2006, dated 2012).
